These are yes or no findings as the source states them, for the method shown. In cells and extracts the contact can be indirect. Binding can be weak; no strength is given.
Molecular target: GST-SPF45/∆G (human) (UniProt Q96I25)
Experiment: pull-down; GST fusion protein (5 µg) incubated at 30 °C for 15 min in 100 µL with 30% HeLa cell nuclear extract; RNase A treatment; NET2 buffer [50 mM Tris (pH 7.5), 150 mM NaCl, 0.05% Nonidet P-40]; Glutathione Sepharose 4B, 4 °C for 3 h; six washes; Western blotting; only the target purified

The chains behind the UniProt entries cited, without tags or fusion partners. Where a name states a change or a piece, a line headed by the entry shows the natural chain unless it says otherwise.
UniProt Q96I25: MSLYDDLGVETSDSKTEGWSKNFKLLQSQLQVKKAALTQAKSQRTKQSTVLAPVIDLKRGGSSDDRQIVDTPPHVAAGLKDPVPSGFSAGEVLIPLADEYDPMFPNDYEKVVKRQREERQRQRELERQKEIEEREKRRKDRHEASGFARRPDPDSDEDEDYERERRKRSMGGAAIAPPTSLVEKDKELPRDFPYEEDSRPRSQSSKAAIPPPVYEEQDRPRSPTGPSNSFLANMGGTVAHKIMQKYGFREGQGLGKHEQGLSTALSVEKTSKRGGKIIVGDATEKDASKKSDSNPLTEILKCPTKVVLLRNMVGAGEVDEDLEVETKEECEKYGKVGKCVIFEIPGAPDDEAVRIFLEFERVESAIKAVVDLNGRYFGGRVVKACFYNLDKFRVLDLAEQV
UniProt O75533: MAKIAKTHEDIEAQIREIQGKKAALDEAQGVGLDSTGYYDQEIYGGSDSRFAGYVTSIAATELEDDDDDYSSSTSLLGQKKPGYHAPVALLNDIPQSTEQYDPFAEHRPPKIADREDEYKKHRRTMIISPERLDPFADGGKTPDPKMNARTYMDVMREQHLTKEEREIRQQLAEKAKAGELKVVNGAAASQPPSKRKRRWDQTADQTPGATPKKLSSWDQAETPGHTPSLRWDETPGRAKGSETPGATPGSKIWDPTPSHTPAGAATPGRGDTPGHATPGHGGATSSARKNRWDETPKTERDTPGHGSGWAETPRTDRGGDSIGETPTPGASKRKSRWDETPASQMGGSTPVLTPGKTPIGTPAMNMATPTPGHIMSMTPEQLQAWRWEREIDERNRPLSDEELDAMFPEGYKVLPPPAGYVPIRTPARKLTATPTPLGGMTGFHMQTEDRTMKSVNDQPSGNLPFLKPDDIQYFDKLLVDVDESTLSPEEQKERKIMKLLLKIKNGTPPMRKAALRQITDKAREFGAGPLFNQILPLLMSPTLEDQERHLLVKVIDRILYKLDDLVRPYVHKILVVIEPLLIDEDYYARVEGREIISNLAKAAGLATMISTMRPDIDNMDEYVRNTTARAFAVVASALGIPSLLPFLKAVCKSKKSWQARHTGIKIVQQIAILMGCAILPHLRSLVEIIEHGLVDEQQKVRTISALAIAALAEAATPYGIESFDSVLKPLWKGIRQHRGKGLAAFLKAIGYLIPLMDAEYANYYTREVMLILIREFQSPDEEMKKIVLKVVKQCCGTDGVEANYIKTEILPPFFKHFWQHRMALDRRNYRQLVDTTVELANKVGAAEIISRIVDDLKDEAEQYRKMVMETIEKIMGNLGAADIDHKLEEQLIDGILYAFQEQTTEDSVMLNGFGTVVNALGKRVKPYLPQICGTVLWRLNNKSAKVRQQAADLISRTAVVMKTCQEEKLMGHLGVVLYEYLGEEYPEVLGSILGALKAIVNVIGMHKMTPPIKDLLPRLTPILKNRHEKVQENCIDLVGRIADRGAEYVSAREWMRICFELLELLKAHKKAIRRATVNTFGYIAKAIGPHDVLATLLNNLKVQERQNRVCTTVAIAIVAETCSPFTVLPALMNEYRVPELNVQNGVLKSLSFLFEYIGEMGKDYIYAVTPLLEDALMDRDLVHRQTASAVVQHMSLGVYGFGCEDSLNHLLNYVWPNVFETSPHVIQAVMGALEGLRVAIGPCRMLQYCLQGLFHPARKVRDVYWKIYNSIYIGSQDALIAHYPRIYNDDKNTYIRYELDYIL

With SF3b155 (from UniProt O75533 1-1304) the binding was “binds”.

Source: publication PMC8363638
